Data source: PubChem BioAssay AID504784 (Drosophila RNAi Screening Center, 2011)

Aim: 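Genome-wide knock-down for genes giving too much or too little stored lipid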 (primary screen)
System: Drosophila Kc167 embryonic cells
Knock-down reagent: long dsRNA against Drosophila genes, about 250 ng dsRNA per well
Duration: 4 days
Conditions: cells fed 400 µM oleic acid bound to BSA
Read-out: 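Cells imaged and segmented; ratio of lipid droplet area to nuclear area, log-transformed, then normalised as a B-score over the screen; higher means more stored lipid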
Scale: droplet/nuclear area B-score: higher = more stored lipid (overstorage)
The deposit covers about 17,000 reagents; this is an unselected part of those that have a named target and a result. 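Each column is one replicate's B-score; the combined score over replicates was not deposited, so single values may mislead.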 A plus sign joins genes that one reagent is predicted to hit. Further read-outs or replicates are left out here.

droplet/nuclear area B-score, replicate 1, by target gene and reagent
CG10512: DRSC11615 1.41
TpnC73F: DRSC11307 -2.39
PIG-H + Kmn2: DRSC12653 0.905
CG11178: DRSC19396 -1.45
CrebA: DRSC11122 -0.29
otk: DRSC07658 -0.0493
CG12935 + Nop10: DRSC07025 -1.04
CG11180: DRSC06055 0.176
CG31407: DRSC12761 0.0845
obst-B: DRSC01987 -1.39
Slc45-1: DRSC10427 2.43
lok: DRSC03567 0.0979
CG11964: DRSC14447 0.56
CG33306: DRSC01899 -0.0555
CG15452: DRSC20523 -0.525
pico: DRSC19430 -0.351
ppk24: DRSC15093 -2.39
l(1)G0469: DRSC19412 -0.57; DRSC19462 -0.853
Obp51a: DRSC22412 -0.0303
Eig71Ea: DRSC11148 -0.142
betaNACtes2: DRSC19792 -1.51
CG13931: DRSC08400 -0.824
egr: DRSC06233 0.178
SMC5: DRSC11849 1.67
CG4465: DRSC15584 0.55
CG13928: DRSC08397 0.24
Skeletor (retired record): DRSC14905 0.217; DRSC14906 -0.167
betaggt-I: DRSC03494 2.11
P5CDh1: DRSC11801 -0.521
gd: DRSC20336 -3.75
CG3651: DRSC03730 -1.19
Adgf-B: DRSC10568 -0.431
CG13248: DRSC11696 0.207
CG6834: DRSC16125 -0.213
CG12951: DRSC14579 -1.66
CG6059: DRSC15958 1.75
fand: DRSC06967 -0.563
myo: DRSC17174 -0.854
LpR1: DRSC15665 0.677; DRSC15669 -0.741; DRSC15670 -0.126
CG5321: DRSC19940 -0.765; DRSC22802 0.721
CG14374: DRSC14834 -0.989
thw: DRSC12552 1.98
PIG-K: DRSC18496 0.524
CG17712: DRSC00266 -1.2
FANCI: DRSC06416 -0.0512
CG2931: DRSC12324 -0.912

Reformatted: 6 of the entries above
{"Target gene":"LpR1","amplicon":"DRSC15670","droplet/nuclear area B-score, replicate 1":-0.126}
{"Target gene":"CG5321","amplicon":"DRSC19940","droplet/nuclear area B-score, replicate 1":-0.765}
{"Target gene":"CG5321","amplicon":"DRSC22802","droplet/nuclear area B-score, replicate 1":0.721}
{"Target gene":"CG14374","amplicon":"DRSC14834","droplet/nuclear area B-score, replicate 1":-0.989}
{"Target gene":"thw","amplicon":"DRSC12552","droplet/nuclear area B-score, replicate 1":1.98}
{"Target gene":"PIG-K","amplicon":"DRSC18496","droplet/nuclear area B-score, replicate 1":0.524}

Additional results follow.
droplet/nuclear area B-score, replicate 1, by target gene and reagent
SmydA-1: DRSC07200 0.457
sas: DRSC12631 -0.00987
sws: DRSC18843 -0.445
Adgf-A: DRSC10566 0.71
7SLRNA:CR42652 + 7SLRNA:CR32864: DRSC22968 0.869
Tmem131: DRSC07154 -0.258
Cpr49Af: DRSC07202 -0.73
CG42240: DRSC18097 -0.399
CG32320: DRSC21514 0.237
CG3285: DRSC00589 -0.0549
unc80: DRSC15329 -0.602
Trhn: DRSC08621 0.22
CG4456 + Hsp22: DRSC11187 1.16; DRSC11192 0.555
CG14811: DRSC17962 -0.677
CG14190: DRSC19545 1
beat-Ic: DRSC01524 -0.125; DRSC03491 2.14
CG9801: DRSC16568 1.35
CG31855: DRSC02968 -0.0373
Las: DRSC11772 -1.39
CG32199: DRSC09990 0.466
CG5946: DRSC10560 -1.64
Ccp84Ab: DRSC12587 -1.24
Ripalpha: DRSC02657 0.488
CG2059: DRSC18203 -0.657
Upf1: DRSC19667 3.04
Obp28a: DRSC03394 0.945
CG8568: DRSC20113 0.225
CG42382: DRSC07671 -0.566
Rsph1: DRSC02864 -0.632
MED31: DRSC12142 1.91
